PubChem BioAssay AID652259 | Drosophila RNAi Screening Center | 2013
The deposit covers about 22,000 reagents; shown is an unselected part of those with a known target gene and a result. Over the whole deposit, 233 (1.1%) are marked active. 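Light values are raw, unnormalised plate reads; the ratio scores behind the reporter calls were not deposited.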 Reagent sequences are not shown. Not given: the amount of reagent, the time to read-out, the dose of the treatment.

Purpose: 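Knock-downs that push a Wingless-driven reporter up or down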 (primary screen)
System: Drosophila clone 8 imaginal disc epithelial cells
Knock-down reagent: long dsRNA against Drosophila genes
Conditions: pathway stimulated by co-transfected Wingless expression plasmid
Detection: 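Dual luciferase reads per well after Wingless plasmid stimulation: reporter firefly light and Renilla control light; activity is firefly divided by Renilla, a ratio not deposited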
Scale: firefly reporter light: higher = more Wg reporter light, before normalisation; Renilla control light: higher = more transfected or surviving cells
Call rule: 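a knock-down is a candidate when at least two out of four statistical tests show it departing from its plate mean; one test alone signals a weak candidate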
Calls: active = candidate regulator (raises or lowers reporter); inactive = not a candidate

Target gene	amplicon	firefly reporter light, replicate 1	firefly reporter light, replicate 2	Renilla control light, replicate 1	Renilla control light, replicate 2	outcome
CG11854	DRSC14409	17760		13365		inactive
az2	DRSC07580	9824		3554		inactive
CG8768	DRSC07259	15702		3124		inactive
Kaz	DRSC14637	9009		9400		inactive
wus	DRSC20278	1833	5920	852	1955	inactive
Plod	DRSC10601	2096		1593		inactive
Plod	DRSC10602	4786		1818		inactive
Rsod	DRSC15424	5788		2091		inactive
CG15712	DRSC06583	5905		4002		inactive
CG3819	DRSC10378	11545		2459		inactive
CG9616	DRSC16518	10208		2133		inactive
CG32568	DRSC19913	21593		8304		inactive
CG9257	DRSC03173	2486	7578	765	2538	inactive
Phlpp	DRSC02065	3980	10221	1057	3827	inactive
Phlpp	DRSC22808	4.27e5	4.48e5	1.76e5	1.98e5	inactive
ProtA	DRSC03372	3700	6228	920	3334	inactive
PGRP-SC1a	DRSC06482	2522	6757	912	2794	inactive
osp	DRSC01409	24208		11922		inactive
osp	DRSC03585	6050		1603		inactive
Inx7	DRSC18784	21383		8084		inactive
IntS9	DRSC10493	6067		1846		inactive
smid	DRSC11398	3117	10184	2164	4501	inactive
CG4691	DRSC01950	4388		1954		inactive
TotA	DRSC13448	2816		1520		inactive
CG5681	DRSC02876	2720	6872	901	3821	inactive
Syn1	DRSC11803	20560		6333		inactive
Syn1	DRSC11804	10360		4371		inactive
Set8	DRSC15473	3517		2194		inactive
Hsp60B	DRSC00542	11316		3785		inactive

A portion taken from the entries so far, as a working copy:
Target gene	amplicon	firefly reporter light, replicate 1	firefly reporter light, replicate 2	Renilla control light, replicate 1	Renilla control light, replicate 2	outcome
CG11854	DRSC14409	17760		13365		inactive
az2	DRSC07580	9824		3554		inactive
